Data source: PubChem BioAssay AID1259405 (NCATS, 2018)

Test: 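Mouse-designed siRNAs used to find CHO productivity engineering targets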 (primary screen)
Cells: Chinese hamster CHO-K1 ovary cells with stable secreted eGFP expression
Reagent: single siRNA against mouse genes, 0.8 pmol siRNA per well (2 µl of 400 nM stock)
Duration: 3 days
Measured: 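Per-well intracellular GFP measured by laser scanning cytometry, plus viability from ATP luminescence, each relative to plate median of non-targeting control wells, in %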
Scale: GFP, % of control: higher = more GFP per well, higher productivity; viability (ATP), % of control: higher = more viable cells (more ATP)
Hit rule: 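Called active when intracellular GFP, relative to negative control, is at or above 120%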
The whole screen tested about 50,000 reagents; shown is a random part of them. Of all reagents, about 4,000 (8%) are marked active. 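Mouse siRNA library applied to hamster cells; one well for each siRNA.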 Unmarked entries are inactive. Reagents against one gene are numbered here.

{"gene knocked down":"Dennd4b (DENN domain containing 4B)","reagent no.":1,"GFP, % of control":48.2,"viability (ATP), % of control":54.7}
{"gene knocked down":"Dennd4b (DENN domain containing 4B)","reagent no.":2,"GFP, % of control":98.4,"viability (ATP), % of control":110}
{"gene knocked down":"Dennd4b (DENN domain containing 4B)","reagent no.":3,"GFP, % of control":"121 (active)","viability (ATP), % of control":144}
{"gene knocked down":"Tekt2 (tektin 2)","reagent no.":1,"GFP, % of control":98.9,"viability (ATP), % of control":92.7}
{"gene knocked down":"Tekt2 (tektin 2)","reagent no.":2,"GFP, % of control":76.2,"viability (ATP), % of control":74.2}
{"gene knocked down":"Pigc (phosphatidylinositol glycan anchor biosynthesis, class C)","reagent no.":1,"GFP, % of control":64.5,"viability (ATP), % of control":104}
{"gene knocked down":"Pigc (phosphatidylinositol glycan anchor biosynthesis, class C)","reagent no.":2,"GFP, % of control":"131 (active)","viability (ATP), % of control":96.7}
{"gene knocked down":"Pigc (phosphatidylinositol glycan anchor biosynthesis, class C)","reagent no.":3,"GFP, % of control":68.7,"viability (ATP), % of control":100}
{"gene knocked down":"Itga4 (integrin alpha 4)","reagent no.":1,"GFP, % of control":66,"viability (ATP), % of control":63.3}
{"gene knocked down":"Itga4 (integrin alpha 4)","reagent no.":2,"GFP, % of control":120,"viability (ATP), % of control":99.6}
{"gene knocked down":"Ift54 (intraflagellar transport 54)","reagent no.":1,"GFP, % of control":99.3,"viability (ATP), % of control":75.9}
{"gene knocked down":"Ift54 (intraflagellar transport 54)","reagent no.":2,"GFP, % of control":65.4,"viability (ATP), % of control":68.3}
{"gene knocked down":"Ift54 (intraflagellar transport 54)","reagent no.":3,"GFP, % of control":92.6,"viability (ATP), % of control":64.5}
{"gene knocked down":"Abca15 (ATP-binding cassette, sub-family A member 15)","reagent no.":1,"GFP, % of control":81.7,"viability (ATP), % of control":93.3}
{"gene knocked down":"Abca15 (ATP-binding cassette, sub-family A member 15)","reagent no.":2,"GFP, % of control":71.1,"viability (ATP), % of control":75.9}
{"gene knocked down":"Abca15 (ATP-binding cassette, sub-family A member 15)","reagent no.":3,"GFP, % of control":88.8,"viability (ATP), % of control":61}
{"gene knocked down":"Or52r1 (olfactory receptor family 52 subfamily R member 1)","reagent no.":1,"GFP, % of control":"130 (active)","viability (ATP), % of control":77.6}
{"gene knocked down":"Or52r1 (olfactory receptor family 52 subfamily R member 1)","reagent no.":2,"GFP, % of control":76.7,"viability (ATP), % of control":77.1}
{"gene knocked down":"Or52r1 (olfactory receptor family 52 subfamily R member 1)","reagent no.":3,"GFP, % of control":78.6,"viability (ATP), % of control":125}
{"gene knocked down":"Tcaf1 (TRPM8 channel-associated factor 1)","reagent no.":1,"GFP, % of control":64.1,"viability (ATP), % of control":88.9}
{"gene knocked down":"Tcaf1 (TRPM8 channel-associated factor 1)","reagent no.":2,"GFP, % of control":54.9,"viability (ATP), % of control":66.9}
{"gene knocked down":"Tcaf1 (TRPM8 channel-associated factor 1)","reagent no.":3,"GFP, % of control":93.5,"viability (ATP), % of control":115}
{"gene knocked down":"Hexim1 (hexamethylene bis-acetamide inducible 1)","reagent no.":1,"GFP, % of control":78.7,"viability (ATP), % of control":96.6}
{"gene knocked down":"Hexim1 (hexamethylene bis-acetamide inducible 1)","reagent no.":2,"GFP, % of control":106,"viability (ATP), % of control":43.2}
{"gene knocked down":"Hexim1 (hexamethylene bis-acetamide inducible 1)","reagent no.":3,"GFP, % of control":"148 (active)","viability (ATP), % of control":107}
{"gene knocked down":"Sh3pxd2b (SH3 and PX domains 2B)","reagent no.":1,"GFP, % of control":44.1,"viability (ATP), % of control":39.2}
{"gene knocked down":"Sh3pxd2b (SH3 and PX domains 2B)","reagent no.":2,"GFP, % of control":66.8,"viability (ATP), % of control":73.9}
{"gene knocked down":"Sh3pxd2b (SH3 and PX domains 2B)","reagent no.":3,"GFP, % of control":"151 (active)","viability (ATP), % of control":70.9}

In a second layout: 4 of the entries above.
| gene knocked down | reagent no. | GFP, % of control | viability (ATP), % of control |
| --- | --- | --- | --- |
| Itga4 (integrin alpha 4) | 1 | 66 | 63.3 |
| Itga4 (integrin alpha 4) | 2 | 120 | 99.6 |
| Ift54 (intraflagellar transport 54) | 1 | 99.3 | 75.9 |
| Ift54 (intraflagellar transport 54) | 2 | 65.4 | 68.3 |
